The results in this text go back to publication PMC10144346, “Novel PD-L1-Targeted Phenyl-Pyrazolone Derivatives with Antioxidant Properties” (Molecules, 2023).

A short description of this data set: Aldehyde (4-HNE) reactivity by HRMS. The conditions noted are these: 180 min, 37 °C, [M–H]-; for HRMS intensity of unreacted compound: with 4-HNE. From the text:
Edaravone (1) is a reactive molecule known to form adducts with different aromatic aldehydes, such as formylpterin and vanillin [15, 19]. In aqueous solution, it forms mono- and bis-adducts with the aldehyde compound vanillin [20]. […] Here we have compared the reactivity of compounds 1–5 using another aldehyde with a major biological relevance, 4-hydroxynonenal. 4-HNE is a product of lipid peroxidation implicated in the pathogenesis of diverse human diseases, such as diabetes, aging-related diseases and cancers. […] Edaravone is known to react covalently with 4-HNE to form mono-, bis-, and tris-adducts in solution [25]. We used high-resolution mass spectrometry (HRMS) to monitor the formation of the covalent adducts generated with the phenyl-pyrazolones and 4-HNE after 3 h of incubation at physiological temperature in an aqueous buffer. The formation of mono-, bis-, and tris-adducts was detected unambiguously with each compound (Figure 8). A reaction scheme is represented in Figure 9 for compound 5. In each case, the pyrazolone compound (nucleophile) easily reacted with 4-HNE to generate the different species, each characterized by their corresponding mass (m/z), the ring-double-bond value (rdb, valence values of elements in structure), the signal intensity and the correspondence with the theoretical m/z value (Δppm) (Table 3). The different species can be easily identified, with the isotopic pattern characteristic for the presence of chlorine and carbon atoms (chlorine and carbon cluster isotopes). In all cases, the species formed were identified without any ambiguity from their relative abundances. […] These values were in accordance with the theorical abundances, calculated from the exactive software for the isotopic pattern of the ions from m/z = 489.13606 to m/z = 494.13323.
High resolution mass spectrometry (HRMS) and spectra were recorded with an Exactive Plus mass spectrometer (Thermo Fisher Scientific, San Jose, CA, USA) equipped with a heated electrospray ionisation probe (HESI -II). Each mass analyzer was calibrated with Pierce®ESI positive and negative ion calibration solutions each week (Thermo Fisher Scientific). Optimization of voltages, gas values, and temperatures applied for ion transfer and ionization was performed in negative mode. The tuning parameters were optimized separately with reaction mixture obtained from reaction of nucleophile with the aldehyde. This was completed by infusing first individual solutions of each nucleophile or the aldehyde at 10 pmol/µL. Each reaction mixture was performed during 180 min at 37 °C with the compound at 0.5 mM in phosphate buffer 10 mM, pH = 7.4 and then the reaction mixture was diluted 1/400 in MeOH. The solution was injected with a syringe at a flow rate of 10 µL/min. MS parameters were: sheath gas flow rate 45; auxiliary gas flow rate 10 arbitrary units (nitrogen was used as auxiliary and sheath gas); spray voltage −3.50 kV; capillary temperature 320 °C; auxiliary gas heater temperature 320 °C and S-lens RF level 50. The ions between m/z 150–1500 were scanned in high-resolution mode of the instrument. The identification of the reaction products was performed by HRMS data as elementary analysis parameters (m/z values, relative abundances of isotopic pattern, Ring Double Bond values and mass accuracies lower than 5 ppm).

The structures appear in SMILES notation.

With `CC1=NN(c2ccccc2)C(=O)C1` [Compound 1, edaravone, reference compound], the “HRMS intensity of bis-adduct with 4-HNE” value is recorded as 6.60 × 10^5, the “HRMS intensity of mono-adduct with 4-HNE” value is on record as 4.88 × 10^5, the “HRMS intensity of tris-adduct with 4-HNE” value is 8.37 × 10^4 and the “HRMS intensity of unreacted compound” value is 3.98 × 10^6.

For the compound `Oc1cc(-c2ccccc2F)nn1-c1ccc(Cl)cc1Cl` [Compound 5, 1-(2,4-Dichlorophenyl)-3-(2-fluorophenyl)-1H-pyrazol-5-ol], the “HRMS intensity of bis-adduct with 4-HNE” value is recorded as 1.43 × 10^6, the “HRMS intensity of mono-adduct with 4-HNE” value is 1.98 × 10^6, the “HRMS intensity of tris-adduct with 4-HNE” value was 3.51 × 10^5 and the “HRMS intensity of unreacted compound” value is given as 3.92 × 10^6.

Take `CCC1=NN(c2ccc(Cl)cc2Cl)C(=O)C1` [Compound 4, 1-(2,4-dichlorophenyl)-3-ethyl-1H-pyrazol-5(4H)-one]: the “HRMS intensity of bis-adduct with 4-HNE” value is on record as 2.05 × 10^6, the “HRMS intensity of mono-adduct with 4-HNE” value is 9.70 × 10^5, the “HRMS intensity of tris-adduct with 4-HNE” value is on record as 3.76 × 10^5 and the “HRMS intensity of unreacted compound” value was 3.45 × 10^6.

Take `COc1ccccc1C1=NN(c2ccc(Cl)cc2Cl)C(=O)C1` [Compound 3, 1-(2,4-Dichlorophenyl)-3-(2-methoxyphenyl)-1H-pyrazol-5(4H)-one]: the “HRMS intensity of bis-adduct with 4-HNE” value is recorded as 1.56 × 10^6, the “HRMS intensity of mono-adduct with 4-HNE” value is 3.23 × 10^6, the “HRMS intensity of tris-adduct with 4-HNE” value is on record as 2.53 × 10^5 and the “HRMS intensity of unreacted compound” value was 3.84 × 10^6.
